# Some of the results follow. Residues, ends and D or L forms follow the SMILES beside them. *: point of attachment. Cbz = O=C(OCc1ccccc1)*
# Amino acid sequences for entries named in this document (tags omitted). A change or cut given only in a name is not applied to a line headed by its entry.
# UniProt O14818: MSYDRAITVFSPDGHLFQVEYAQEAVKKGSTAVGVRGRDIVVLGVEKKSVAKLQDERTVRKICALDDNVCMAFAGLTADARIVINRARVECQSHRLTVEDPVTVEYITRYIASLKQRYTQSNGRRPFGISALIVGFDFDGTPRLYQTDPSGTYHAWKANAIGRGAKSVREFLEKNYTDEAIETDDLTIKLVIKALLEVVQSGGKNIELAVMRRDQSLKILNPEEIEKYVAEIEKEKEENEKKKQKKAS
# UniProt Q2TAL8: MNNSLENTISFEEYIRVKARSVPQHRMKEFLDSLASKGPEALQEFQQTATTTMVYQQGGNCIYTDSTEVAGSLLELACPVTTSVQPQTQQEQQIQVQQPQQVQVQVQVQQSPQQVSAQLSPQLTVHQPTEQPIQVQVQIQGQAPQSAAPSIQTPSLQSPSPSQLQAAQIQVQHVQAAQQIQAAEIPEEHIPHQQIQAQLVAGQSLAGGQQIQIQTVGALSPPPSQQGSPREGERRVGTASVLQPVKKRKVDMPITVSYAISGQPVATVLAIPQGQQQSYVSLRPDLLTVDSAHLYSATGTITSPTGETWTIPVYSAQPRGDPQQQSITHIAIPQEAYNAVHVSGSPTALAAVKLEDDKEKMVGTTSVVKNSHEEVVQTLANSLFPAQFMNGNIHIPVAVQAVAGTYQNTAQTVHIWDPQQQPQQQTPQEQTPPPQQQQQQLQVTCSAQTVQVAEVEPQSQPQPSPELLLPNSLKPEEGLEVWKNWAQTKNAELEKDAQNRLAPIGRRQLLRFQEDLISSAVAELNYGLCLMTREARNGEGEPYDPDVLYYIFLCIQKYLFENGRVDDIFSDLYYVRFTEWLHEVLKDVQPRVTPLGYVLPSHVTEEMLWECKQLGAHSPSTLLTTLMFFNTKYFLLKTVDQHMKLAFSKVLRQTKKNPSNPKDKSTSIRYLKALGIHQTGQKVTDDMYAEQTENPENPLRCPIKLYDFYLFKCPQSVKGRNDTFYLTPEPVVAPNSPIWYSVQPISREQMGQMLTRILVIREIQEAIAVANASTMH
# UniProt P06454: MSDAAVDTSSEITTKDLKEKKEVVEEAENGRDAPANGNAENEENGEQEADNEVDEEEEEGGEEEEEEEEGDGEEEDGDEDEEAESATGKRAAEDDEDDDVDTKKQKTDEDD
# UniProt Q99460, whole entry, looked up: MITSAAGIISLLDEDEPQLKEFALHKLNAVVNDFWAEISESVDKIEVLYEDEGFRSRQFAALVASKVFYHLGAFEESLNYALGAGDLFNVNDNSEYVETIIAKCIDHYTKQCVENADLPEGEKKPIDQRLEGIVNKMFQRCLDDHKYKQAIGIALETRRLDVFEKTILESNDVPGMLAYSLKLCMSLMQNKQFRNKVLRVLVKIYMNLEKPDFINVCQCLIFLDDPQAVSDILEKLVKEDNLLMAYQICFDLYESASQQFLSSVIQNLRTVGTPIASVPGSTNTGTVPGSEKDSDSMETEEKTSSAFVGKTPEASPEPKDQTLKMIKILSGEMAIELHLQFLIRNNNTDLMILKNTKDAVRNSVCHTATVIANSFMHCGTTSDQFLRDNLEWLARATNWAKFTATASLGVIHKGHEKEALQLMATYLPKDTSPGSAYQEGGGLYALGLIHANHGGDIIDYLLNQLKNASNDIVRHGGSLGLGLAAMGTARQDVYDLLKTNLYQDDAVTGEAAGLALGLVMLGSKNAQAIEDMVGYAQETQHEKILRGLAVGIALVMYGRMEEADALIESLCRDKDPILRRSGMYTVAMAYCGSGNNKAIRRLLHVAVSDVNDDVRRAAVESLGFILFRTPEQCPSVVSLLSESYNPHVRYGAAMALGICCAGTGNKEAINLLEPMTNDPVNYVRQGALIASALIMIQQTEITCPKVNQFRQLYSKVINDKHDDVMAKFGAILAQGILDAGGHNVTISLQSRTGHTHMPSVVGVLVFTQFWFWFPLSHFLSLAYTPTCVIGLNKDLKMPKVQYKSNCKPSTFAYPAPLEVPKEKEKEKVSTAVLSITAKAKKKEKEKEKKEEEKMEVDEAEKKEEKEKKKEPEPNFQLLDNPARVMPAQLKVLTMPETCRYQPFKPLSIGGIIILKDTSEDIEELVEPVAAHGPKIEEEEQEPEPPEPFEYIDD
# UniProt Q9UNM6: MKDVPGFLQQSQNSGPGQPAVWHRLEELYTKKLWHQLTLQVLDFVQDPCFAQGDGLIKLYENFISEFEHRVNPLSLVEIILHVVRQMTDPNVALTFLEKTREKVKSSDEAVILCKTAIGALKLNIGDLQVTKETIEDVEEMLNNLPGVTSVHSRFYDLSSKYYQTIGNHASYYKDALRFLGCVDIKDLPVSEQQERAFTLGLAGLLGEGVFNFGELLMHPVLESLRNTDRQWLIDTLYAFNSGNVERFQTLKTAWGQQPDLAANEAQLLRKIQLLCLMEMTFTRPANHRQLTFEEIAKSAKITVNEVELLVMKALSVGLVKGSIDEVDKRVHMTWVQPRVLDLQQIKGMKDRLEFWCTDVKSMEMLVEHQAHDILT
# UniProt Q03393: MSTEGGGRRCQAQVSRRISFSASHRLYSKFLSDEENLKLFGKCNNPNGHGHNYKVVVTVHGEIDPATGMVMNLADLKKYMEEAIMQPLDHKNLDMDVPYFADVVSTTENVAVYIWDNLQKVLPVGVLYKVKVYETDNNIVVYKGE
# UniProt P11216: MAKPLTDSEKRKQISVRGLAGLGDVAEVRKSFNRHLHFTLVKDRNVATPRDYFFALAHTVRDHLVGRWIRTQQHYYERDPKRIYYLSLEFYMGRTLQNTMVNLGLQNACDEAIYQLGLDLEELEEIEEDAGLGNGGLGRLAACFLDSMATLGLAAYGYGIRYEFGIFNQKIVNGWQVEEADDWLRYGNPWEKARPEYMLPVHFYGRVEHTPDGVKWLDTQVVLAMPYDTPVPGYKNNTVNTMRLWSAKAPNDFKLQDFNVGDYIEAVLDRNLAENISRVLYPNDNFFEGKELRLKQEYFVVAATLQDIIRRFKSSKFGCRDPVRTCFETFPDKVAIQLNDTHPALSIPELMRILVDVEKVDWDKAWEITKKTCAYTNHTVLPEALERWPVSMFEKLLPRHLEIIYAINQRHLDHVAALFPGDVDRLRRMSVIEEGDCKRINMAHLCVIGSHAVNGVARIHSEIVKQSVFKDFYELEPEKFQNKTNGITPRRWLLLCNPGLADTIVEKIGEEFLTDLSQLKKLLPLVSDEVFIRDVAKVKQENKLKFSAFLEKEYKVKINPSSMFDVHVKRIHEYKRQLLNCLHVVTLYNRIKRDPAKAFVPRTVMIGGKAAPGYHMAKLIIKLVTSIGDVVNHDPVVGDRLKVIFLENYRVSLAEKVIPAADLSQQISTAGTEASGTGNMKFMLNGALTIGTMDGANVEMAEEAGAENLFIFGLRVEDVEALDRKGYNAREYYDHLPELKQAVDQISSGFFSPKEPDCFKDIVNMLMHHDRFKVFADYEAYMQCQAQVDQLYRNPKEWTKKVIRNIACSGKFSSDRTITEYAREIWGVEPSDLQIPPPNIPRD
# UniProt P32322: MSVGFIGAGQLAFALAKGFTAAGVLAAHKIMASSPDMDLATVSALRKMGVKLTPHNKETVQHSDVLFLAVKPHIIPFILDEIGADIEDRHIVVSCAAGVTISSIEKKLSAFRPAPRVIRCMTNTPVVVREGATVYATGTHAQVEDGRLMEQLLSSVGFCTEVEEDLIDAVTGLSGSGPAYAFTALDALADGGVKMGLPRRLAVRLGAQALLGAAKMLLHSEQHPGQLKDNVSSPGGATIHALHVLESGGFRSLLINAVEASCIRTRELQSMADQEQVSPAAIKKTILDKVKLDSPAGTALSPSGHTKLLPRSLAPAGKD
# UniProt P62191: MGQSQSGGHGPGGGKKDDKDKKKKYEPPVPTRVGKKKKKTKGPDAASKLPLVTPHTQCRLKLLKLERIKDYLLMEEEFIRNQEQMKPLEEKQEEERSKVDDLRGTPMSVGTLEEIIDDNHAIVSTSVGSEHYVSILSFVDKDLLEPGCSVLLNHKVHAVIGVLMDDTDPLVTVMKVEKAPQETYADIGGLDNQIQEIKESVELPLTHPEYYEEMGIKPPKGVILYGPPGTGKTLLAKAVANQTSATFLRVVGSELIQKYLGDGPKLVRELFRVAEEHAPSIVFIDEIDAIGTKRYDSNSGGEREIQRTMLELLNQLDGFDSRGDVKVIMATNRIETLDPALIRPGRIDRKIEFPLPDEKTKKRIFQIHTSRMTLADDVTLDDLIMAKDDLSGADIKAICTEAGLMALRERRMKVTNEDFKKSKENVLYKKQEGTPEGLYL
# UniProt Q05209: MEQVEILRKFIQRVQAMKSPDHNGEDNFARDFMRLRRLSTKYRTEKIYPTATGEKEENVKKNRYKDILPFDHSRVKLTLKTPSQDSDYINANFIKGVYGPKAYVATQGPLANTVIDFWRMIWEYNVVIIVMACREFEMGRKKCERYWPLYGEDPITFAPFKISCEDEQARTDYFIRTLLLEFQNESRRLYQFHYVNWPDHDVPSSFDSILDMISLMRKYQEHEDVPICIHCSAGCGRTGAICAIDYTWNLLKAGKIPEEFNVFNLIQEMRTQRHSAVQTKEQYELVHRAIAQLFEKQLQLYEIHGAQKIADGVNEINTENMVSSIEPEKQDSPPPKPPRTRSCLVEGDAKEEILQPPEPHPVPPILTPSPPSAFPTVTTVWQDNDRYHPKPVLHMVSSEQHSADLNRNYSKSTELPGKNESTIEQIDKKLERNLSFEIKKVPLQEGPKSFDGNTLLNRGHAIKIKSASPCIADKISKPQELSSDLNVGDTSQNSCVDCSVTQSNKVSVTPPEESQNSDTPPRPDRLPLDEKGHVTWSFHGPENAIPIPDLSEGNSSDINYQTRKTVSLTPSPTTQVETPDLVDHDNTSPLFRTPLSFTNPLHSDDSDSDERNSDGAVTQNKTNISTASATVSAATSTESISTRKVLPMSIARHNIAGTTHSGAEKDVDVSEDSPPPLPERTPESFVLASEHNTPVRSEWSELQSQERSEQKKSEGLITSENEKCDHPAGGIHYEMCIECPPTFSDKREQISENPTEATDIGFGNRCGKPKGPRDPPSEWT
# UniProt P62195, whole entry, looked up: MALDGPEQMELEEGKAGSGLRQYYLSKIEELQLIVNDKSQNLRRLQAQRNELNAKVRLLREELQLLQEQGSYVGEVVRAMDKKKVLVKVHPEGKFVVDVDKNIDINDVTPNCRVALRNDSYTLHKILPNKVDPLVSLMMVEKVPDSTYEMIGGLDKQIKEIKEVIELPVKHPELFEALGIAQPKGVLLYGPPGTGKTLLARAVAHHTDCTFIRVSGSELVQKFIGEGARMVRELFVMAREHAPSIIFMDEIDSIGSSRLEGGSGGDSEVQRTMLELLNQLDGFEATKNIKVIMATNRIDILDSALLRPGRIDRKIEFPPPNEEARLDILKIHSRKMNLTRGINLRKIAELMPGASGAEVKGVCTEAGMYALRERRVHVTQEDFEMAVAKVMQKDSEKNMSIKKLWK
# Experiments:
# Test in all cases: log2 fold change, soluble protein after heating vs DMSO (PISA); higher = thermal stabilisation; K562 cells, 10 uM, 30 min; active = over 0.2 and 3.5 SD of the protein, either way, in both replicates (recomputed)
# [1] = compound: C#Cc1cccc(Nc2ncnc3cc(OCCOC)c(OCCOC)cc23)c1 [erlotinib]
# Outline: (§1)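 Aliquots of K562 cells (2×10^6 cells/mL) treated with 10 μM compound for 30 min were heated for 3 min over 48°C-58°C. After pooling and extraction in PBS with 0.5% NP-40 at 4°C, soluble protein from a 21,000xg, 90 min spin was quantified by TMTpro 16plex LC-MS/MS with channel sums equalised. Thermal stability is expressed against control samples, from duplicates, as a log2 fold change.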
# [2] = compound: C/C(=N\NC(=O)C1=CC(=CC=C1)S(=O)(=O)N2CCOCC2)/C3=C(C=CC(=C3)Cl)O
# Outline: as §1
# [3] = compound: C1=CC(=C(C=C1Cl)C2=NC3=NC=CN=C3C(=N2)NC4=CC=NC=C4)F
# Outline: as §1
# [4] = compound: C1=CC(=CC=C1C2=NC3=C(N2)C=C(C=C3)C(=O)N)OC4=CC=C(C=C4)Cl
# Outline: as §1
# [5] = compound: C1=CC2=C(C=CC(=C2)/C=C\3/C(=O)NC(=NCC4=CC=CS4)S3)N=C1
# Outline: as §1
# [6] = compound: C1=CC2=NC=CN=C2C=C1/C=C/3\C(=O)NC(=O)S3
# Outline: as §1
# [7] = compound: C1=CC=C2C(=C1)C3=NNC4=CC=CC(=C43)C2=O
# Outline: as §1
# [8] = compound: C1CCN(C1)C(=O)NC2=CC=CC(=C2)NC3=NC=C(C(=N3)NCCC4=CN=CN4)Br
# Outline: as §1
# [9] = compound: C1CN(CCC1(CC2=CC=C(C=C2)Cl)N)C3=NC=NC4=C3C=CN4
# Outline: as §1
# [10] = compound: C1COCCN1CCN2C3=CC=CC=C3N=C2NC(=O)C4=CC(=CC=C4)[N+](=O)[O-] [IRAK-1-4 Inhibitor I]
# Outline: as §1
# [11] = compound: C=CC(=O)N1CCC[C@@H](n2nc(-c3ccc(Oc4ccccc4)cc3)c3c(N)ncnc32)C1 [ibrutinib]
# Outline: as §1
# [12] = compound: CC(=O)c1cnc2ccc(-c3cc(Cl)c(O)c(Cl)c3)nc2c1N[C@H]1CC[C@H](CN(C)C)CC1
# Outline: as §1
# [13] = compound: CC(C)(O)CC(=O)NCCn1ccc2ncnc(Nc3ccc(Oc4cccc(C(F)(F)F)c4)c(Cl)c3)c21
# Outline: as §1
# [14] = compound: CC(C)C1=C2N=C(C=C(N2N=C1)NCC3=CC=CC=C3)NCCCCCCN
# Outline: as §1
# [15] = compound: CC(C)N(C[C@H]1O[C@@H](n2cnc3c(N)ncnc32)[C@H](O)[C@@H]1O)[C@H]1C[C@@H](CCc2nc3cc(C(C)(C)C)ccc3[nH]2)C1 [pinometostat]
# Outline: as §1
# [16] = compound: CC1=C(C(CC(=O)N1)C2=CC=C(C=C2)C(F)(F)F)C(=O)NC3=C(C=C4C(=C3)C=NN4)F
# Outline: as §1
# [17] = compound: CC1=C(C2=C(C=C1)C(=O)C3=CC=CC=C3N2CCCN)C
# Outline: as §1
# [18] = compound: C1=CC=C(C=C1)C2=NC(=C(N2)C3=CC=NC=C3)C4=CC(=C(C=C4)Cl)O
# Outline: as §1
# [19] = compound: CC(C)(C)Cn1c(N)nc2ccc(-c3[nH]c(C(C)(C)C)nc3-c3ccc(F)cc3)nc21 [ralimetinib]
# Outline: as §1
# [20] = compound: CC(C)C[C@@H](C=O)NC(=O)[C@H](CC(C)C)NC(=O)[C@H](CC(C)C)NC(=O)OCc1ccccc1
# Outline: as §1
Target,log2 fold change [1],log2 fold change [2],log2 fold change [3],log2 fold change [4],log2 fold change [5],log2 fold change [6],log2 fold change [7],log2 fold change [8],log2 fold change [9],log2 fold change [10],log2 fold change [11],log2 fold change [12],log2 fold change [13],log2 fold change [14],log2 fold change [15],log2 fold change [16],log2 fold change [17],log2 fold change [18],log2 fold change [19],log2 fold change [20]
PSMA7 isoform 2 (UniProt O14818),inactive: 0.096,inactive: -0.12,inactive: -0.102,inactive: -0.004,inactive: 0.199,inactive: -0.119,inactive: 0.011,inactive: 0.178,inactive: 0.02,inactive: 0.011,inactive: 0.089,inactive: -0.037,inactive: 0.098,inactive: -0.055,inactive: 0.036,inactive: 0.169,inactive: 0.066,–,–,–
QRICH1 (UniProt Q2TAL8),inactive: 0.066,inactive: 0.361,inactive: -0.023,inactive: 0,inactive: 0.282,inactive: 0.059,inactive: -0.007,inactive: 0.014,inactive: -0.076,inactive: -0.108,inactive: -0.024,inactive: 0.048,inactive: -0.237,inactive: -0.321,inactive: 0.026,–,inactive: -0.08,inactive: -0.053,inactive: 0.055,inactive: 0.08
PTMA (UniProt P06454),inactive: 0.06,inactive: 0.159,inactive: 0.192,inactive: 0.005,inactive: -0.136,inactive: 0.006,inactive: 0.189,inactive: -0.148,inactive: 0.151,inactive: 0.034,inactive: 0.049,inactive: 0.127,inactive: -0.133,inactive: 0.085,inactive: -0.092,–,inactive: -0.021,inactive: 0.197,inactive: 0.251,inactive: -0.289
PSMD1 (UniProt Q99460),inactive: -0.08,inactive: -0.074,inactive: 0.028,inactive: 0.021,inactive: -0.061,inactive: -0.018,inactive: 0.034,inactive: 0.001,inactive: -0.025,inactive: -0.037,inactive: -0.022,inactive: 0.03,inactive: 0.009,inactive: 0.054,inactive: 0.023,–,inactive: -0.004,inactive: 0.062,inactive: 0.061,active: -0.254
PSMD13 (UniProt Q9UNM6),inactive: -0.091,inactive: -0.026,inactive: -0.076,inactive: 0.002,inactive: -0.02,inactive: 0.013,inactive: 0.044,inactive: -0.008,inactive: -0.069,inactive: -0.048,inactive: -0.039,inactive: 0.048,inactive: 0,inactive: 0.009,inactive: 0.09,–,inactive: 0.032,inactive: -0.002,inactive: -0.021,active: -0.265
PTS (UniProt Q03393),inactive: -0.012,inactive: -0.021,inactive: 0.054,inactive: 0.043,inactive: 0.021,inactive: -0.011,inactive: -0.006,inactive: 0.177,inactive: 0.174,inactive: 0.054,inactive: 0.102,inactive: -0.053,inactive: -0.067,inactive: 0.034,inactive: 0.053,inactive: 0.077,inactive: -0.114,–,–,–
PYGB (UniProt P11216),inactive: -0.047,inactive: -0.022,inactive: -0.003,inactive: 0.087,inactive: 0.11,inactive: 0.008,inactive: 0.039,inactive: 0.009,inactive: -0.028,inactive: -0.029,inactive: 0.037,active: -0.246,inactive: 0.025,inactive: 0.01,inactive: 0.011,–,inactive: 0.087,inactive: -0.011,inactive: -0.025,inactive: 0.005
PYCR1 isoform 3 (UniProt P32322),inactive: -0.022,inactive: 0.039,inactive: 0.045,–,inactive: -0.057,–,inactive: 0.02,–,inactive: 0.063,inactive: -0.021,inactive: 0.035,inactive: 0.033,inactive: -0.053,inactive: 0.038,inactive: -0.099,inactive: -0.027,inactive: -0.005,inactive: 0.023,inactive: -0.008,inactive: -0.007
PSMC1 (UniProt P62191),inactive: -0.093,inactive: -0.063,inactive: -0.034,inactive: 0.037,inactive: -0.027,inactive: -0.028,inactive: 0.029,inactive: 0.012,inactive: -0.004,inactive: -0.053,inactive: -0.024,inactive: 0.056,inactive: 0.002,inactive: 0.04,inactive: 0.032,–,inactive: -0.007,inactive: -0.017,inactive: 0.018,active: -0.212
PTPN12 (UniProt Q05209),inactive: 0.005,inactive: -0.007,inactive: -0.011,inactive: 0.004,inactive: 0.022,inactive: 0.101,inactive: -0.036,inactive: -0.039,inactive: -0.05,inactive: -0.011,inactive: -0.008,active: 0.264,inactive: 0.039,inactive: -0.101,inactive: 0.045,–,inactive: 0.004,inactive: -0.021,inactive: 0.004,inactive: 0.057
PSMC5 (UniProt P62195),inactive: -0.116,inactive: -0.044,inactive: -0.029,inactive: 0.021,inactive: -0.022,inactive: -0.03,inactive: 0.019,inactive: 0.021,inactive: -0.032,inactive: -0.038,inactive: -0.031,inactive: 0.008,inactive: 0.024,inactive: 0.009,inactive: 0.021,–,inactive: 0.002,inactive: -0.007,inactive: -0.014,active: -0.273

# Reference: the supplement of paper PMC10849652
